Assay results: patent US10532018B2, “Method of whitening skin using tranexamic acid-peptide having skin whitening activity” (ANPEP INC., priority 2016, dated 2020)
Some results were stated once for a whole list of compounds, not compound by compound.

Assay: Thermal stability and photostability of tranexamic acid-peptides
Type: physicochemical
Conditions: for loss of peptides by heat: 100 μg/mL in 50 mM Tris-HCl pH 8.0, 50° C., up to 60 days; for loss of peptides under the sunlight condition: 100 μg/mL in 50 mM Tris-HCl pH 8.0, sunlight, same method

**Q.** Which “loss of peptides by heat” value does the source give for Tranexamil-AP [Dipeptide-3 AP] here?
**A.** Its value is “less than 10%”.

**Q.** What about the “loss of peptides under the sunlight condition” value of the same substance?
**A.** The value was “less than 10%”.

**Q.** Which “loss of peptides by heat” value does the source give for Tranexamil-HK [Dipeptide-7 HK] here?
**A.** The value was “less than 10%”.

**Q.** And the “loss of peptides under the sunlight condition” value?
**A.** Its value is “less than 10%”.

**Q.** With Tranexamil-PS [Dipeptide-27 PS] as the substance, how does the “loss of peptides by heat” value read?
**A.** The value was “less than 10%”.

**Q.** And the “loss of peptides under the sunlight condition” value?
**A.** Its value is “less than 10%”.

**Q.** Which “loss of peptides by heat” value does the source give for Tranexamil-VS [Dipeptide-23 VS] here?
**A.** The value was “less than 10%”.

**Q.** And the “loss of peptides under the sunlight condition” value?
**A.** The value was “less than 10%”.
